Some of the results follow. Values are raw readings; no control value is given beside them.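 Primary screen: polymyxin B was added at a level permeabilizing Salmonella outer membranes while sparing inner membranes. DMSO wells, both with and without polymyxin B, established maximum growth. Plate-to-plate variation meant each plate was ranked on its own, and the lowest-OD600 compounds were selected as hits.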

The assay concerns Salmonella enterica serovar Typhimurium SL1344. Description: bacterial growth OD600 after 18 h with compound and polymyxin B; higher = more bacterial growth (less inhibition). Conditions: 50 µM, Mueller-Hinton broth.

For the compound `O=C1CC(NC2CCCC2)CN1CCCc1ccccc1` (stereo not given), the “bacterial growth OD600” value (polymyxin B 1 µg/mL) was 0.838.
Turning to `Cc1ccc(C(=O)Nc2ccc(N3CCC(NCC4CCCN(C(C)C)C4)CC3)cc2)c(C)c1` (stereo not given), the “bacterial growth OD600” value (polymyxin B 0.75 µg/mL) worked out at 0.823.
Consider `O=C(NCCCc1ccccn1)c1ccc(N2CCN(C3CCCC3)CC2)nc1`, for which the “bacterial growth OD600” value (polymyxin B 1 µg/mL) came out at 0.982.
Take `Cc1ccccc1C(NC1CCN(c2ccc(NC(=O)c3cnccn3)cc2)CC1)c1ccncc1` (stereo not given): the “bacterial growth OD600” value (polymyxin B 0.75 µg/mL) is 0.019.
The same measure, in the same setting: in the case of `COc1ccc(CCC2CCCN(Cc3[nH]cnc3C)C2)cc1` (stereo not given) it was 0.843.
In the case of `COCc1ccc(C(=O)N2CCCC(CCc3c(F)cccc3F)C2)o1` (stereo not given), the “bacterial growth OD600” value (polymyxin B 0.75 µg/mL) is 0.139.
Still for that read-out and setting: in the case of `CSCCC(=O)NCc1cccnc1N1CCCC(O)C1` (stereo not given) it was 0.841; in that of `COc1ccc(OCc2cc(C(=O)N3CCCCCC3)n[nH]2)c(Cl)c1`, 0.086.
In the case of `COCCC(=O)N1CCC(Oc2ccc(C(=O)NCc3ccc(C)s3)cc2)CC1`, the “bacterial growth OD600” value (polymyxin B 1 µg/mL) amounted to 0.791.
As to `CCN(Cc1ccncc1)C(=O)c1cc(COc2ccc3ncccc3c2)on1`, the “bacterial growth OD600” value (polymyxin B 1 µg/mL) amounted to 0.924.
Same read-out and setting: in the case of `CN(CCc1ccccc1)C1(C(=O)N2CCC(C(N)=O)CC2)Cc2ccccc2C1` it was 0.992.
Turning to `O=C(Nc1cccc(N2CCC(NCCc3ccco3)CC2)c1)c1cccc(C(F)(F)F)c1`, the “bacterial growth OD600” value (polymyxin B 0.75 µg/mL) was 0.854.
Same read-out and setting: in the case of `CCc1cc(C(=O)NCC2Cc3cc(-c4cc(OC)ccc4OC)cc(Cl)c3O2)n(C)n1` (stereo not given) it was 0.309.
With `Cc1oc(-c2cccc(Cl)c2)nc1CN1CCCCC1c1nccs1` (stereo not given), the “bacterial growth OD600” value (polymyxin B 1 µg/mL) was 0.728.
Still for that read-out and setting: in the case of `COc1ccc(CN2CCN(Cc3cn(C)nc3C)CC2CCO)cc1C` (stereo not given) it was 0.871; in that of `O=CN1CCCN([C@H]2CN(S(=O)(=O)c3ccccc3)C[C@@H]2O)CC1`, 0.885.
Consider `COC(=O)CCC(=O)N1CCCC(CCc2ccccc2C(F)(F)F)C1` (stereo not given), for which, for the setting “polymyxin B 0.75 µg/mL”, the “bacterial growth OD600” value stood at 0.006.
On the same count and under the same terms, in the case of `CC1CN(CCC(=O)N2CC3CCCC2C3)Cc2cc(Cl)ccc2O1` (stereo not given) it was 0.184.
On to `Cc1cc(CNCc2c(C(=O)N(C)CCc3ccccc3)nc3sccn23)nn1C`, for which the “bacterial growth OD600” value (polymyxin B 1 µg/mL) was determined as 1.03.
Still for that read-out and setting: in the case of `Cc1cccc(C)c1Oc1ncccc1CNC(=O)c1ccc(CN(C)C)o1` it was 1.22.

These data come from the supplement of paper PMC12889115.
